In all, about 330,000 compounds went through this assay and about 7,700 (2.3%) were called active. Inconclusive results, whose numbers are uncertain, are shown with a selection of clear calls. The call rests on the fitted dose curve; in most records, active means well fitted inhibition curve with a large enough effect; inconclusive means small, poorly fitted or top-dose-only effect, or effect the other way; inactive means flat fitted curve, though single readings scatter. A potency beside an inconclusive call is a rough fit, not a confirmed value.
assay: qHTS screen for small molecules that inhibit ELG1-dependent DNA repair in human embryonic kidney (HEK293T) cells expressing luciferase-tagged ELG1; conditions: HEK293T ELG1-luciferase reporter, luminescence, 16 h, DNA damage induced by 5-fluorouridine; activity change, negative = inhibition: at 46.1 µM (top of the series); further: nearly all actives have a fitted effect of over 55% in size
Summary of the method: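 HEK293T cells expressing luciferase-tagged ELG1 (2,000/well) received 5-Fluorouridine plus compound or DMSO for 16 hr at 37 °C. Luciferase was read by ONE-Glo luminescence after 30 min at room temperature.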
On the % scale 0 is the no-effect control and ±100 the full control effect; potency means the concentration at half of the fitted maximal effect.

Row | SMILES | Potency | activity change, negative = inhibition
1 | NC(=O)c1cc2ccc(O)cc2oc1=NCc1ccccc1 | active: 9.2 µM | 
2 | COC(=O)/C(N=Nc1cccc(C(F)(F)F)c1)=C(\C)O |  | inactive: 4.16%
3 | Cc1cccn2cc(CNS(=O)(=O)c3ccc4ccccc4c3)nc12 | inconclusive: 20.6 µM [inhibitor, partial curve] | 
4 | CCO[C@H]1OC(C(=O)N2CCN(Cc3ccccc3)CC2)=C[C@@H](C2CCCCC2)[C@@H]1CCCO |  | inactive: -0.608%
5 | Cc1cc(C(=O)Nc2nnc(C(F)(F)F)s2)cs1 | inconclusive: 2.59 µM [activator, partial curve] | 
6 | O=C(NCc1ccccn1)Nc1ccccc1 | inconclusive: 14.6 µM [activator, partial curve] | 
7 | Cc1cc(=O)oc2c(C)c(OCC(=O)N3CCN(c4ccc(F)cc4)CC3)ccc12 | inconclusive: 29.1 µM [inhibitor, single point] | 
8 | CCCn1nnc(NC(=S)NC(=O)C(C)(C)C)n1 | inconclusive: 23.1 µM [activator, single point] | 
9 | O=C(Nc1nc2cc3c(cc2s1)OCO3)C1CCCCC1 | inconclusive: 1.64 µM [activator, partial curve] | 
10 | Cc1cc(OCCCCNC(C)C)cc(C(C)C)c1 |  | inactive: 2.49%
11 | COC(=O)COc1ccc(-c2ccccc2)cc1C=O |  | inactive: 20.8%
12 | C/C(=N\NC(=O)Cc1c(C)[nH][nH]c1=O)c1ccc2ccccc2c1 | inconclusive: 18.4 µM [activator, single point] | 
13 | Cc1ccc(SCC(=O)Nc2ccc(S(=O)(=O)Nc3ncccn3)cc2)cc1 |  | inactive: 1.82%
14 | Cc1nn(Cc2cccc(C(=O)Nc3ccn(Cc4ccccc4F)n3)c2)c(C)c1[N+](=O)[O-] | inconclusive: 20.6 µM [inhibitor, single point] | 
15 | Nc1ccn([C@@H]2O[C@H](COS(=O)(=O)O)[C@@H](O)[C@H]2O)c(=O)n1 | inconclusive: 0.146 µM [inhibitor, partial curve, poor fit] | 
16 | Cc1ccc(/C=C2/C(=O)ON=C2c2ccccc2)o1 | inconclusive: 32.6 µM [inhibitor, single point] | 
17 | Cc1ccc(NC(=O)c2ccc(NCCN)c([N+](=O)[O-])c2)cc1Cl | inconclusive: 13 µM [activator, partial curve] | 
18 | C[C@@H]1CN([C@H](C)CO)C(=O)Cc2cc(NS(=O)(=O)c3ccc(Cl)cc3)ccc2O[C@H]1CN(C)Cc1ccc(C(F)(F)F)cc1 | inconclusive: 25.9 µM [inhibitor, partial curve, poor fit] | 
19 | CCOCCCN1C(=O)CN(C2CCCCCC2)C(=O)C1c1ccc(OC)cc1 (stereo not drawn) | inconclusive: 20 µM [activator, partial curve, poor fit] | 
20 | Cc1cccc(NC(=O)c2nc[nH]c2C(=O)N[C@@H](CCCCNC(=O)OC(C)(C)C)C(=O)OC(C)(C)C)c1 | active: 14.6 µM | 
21 | CC(=O)NC(c1ccc(C)cc1)c1cc([N+](=O)[O-])c2cccnc2c1O (stereo not drawn) | inconclusive: 3.66 µM [inhibitor, full curve] | 
22 | O=C(Cc1ccccc1)Nc1cc2c(cc1Cl)OCCCO2 | inconclusive: 11.6 µM [activator, partial curve] | 
23 | C=CCn1c(SCc2csc(C)n2)nc2sc3c(c2c1=O)CCCCC3 | inconclusive: 29.1 µM [inhibitor, single point] | 

Looked up one by one from the list above:
Row | SMILES | Potency | activity change, negative = inhibition
22 | O=C(Cc1ccccc1)Nc1cc2c(cc1Cl)OCCCO2 | inconclusive: 11.6 µM [activator, partial curve] | 
14 | Cc1nn(Cc2cccc(C(=O)Nc3ccn(Cc4ccccc4F)n3)c2)c(C)c1[N+](=O)[O-] | inconclusive: 20.6 µM [inhibitor, single point] | 
11 | COC(=O)COc1ccc(-c2ccccc2)cc1C=O |  | inactive: 20.8%

Additional structures:

Row | SMILES | Potency | activity change, negative = inhibition
24 | Nc1c(C(O)(C(F)(F)F)C(F)(F)F)ccc2ccccc12 | inconclusive: 5.17 µM [inhibitor, single point] | 
25 | Cc1ccc(S(=O)(=O)Nc2cc3c4c(c2)CCC(=O)N4CCC3)cc1 | inconclusive: 6.51 µM [activator, single point] | 
26 | Cc1cc(CNC(=O)Cc2ccccc2)c2ccccc2n1 | inconclusive: 23.1 µM [activator, partial curve, poor fit] | 
27 | COc1ccccc1NC(=O)CCNS(=O)(=O)c1ccc2c(c1)CC(C)N2C(=O)C1CC1 (stereo not drawn) |  | inactive: 1.43%
28 | COc1ccc(CN2CCNC(=O)C2CC(=O)NCCCn2cccn2)cc1C (stereo not drawn) | inconclusive: 16.4 µM [activator, single point] | 
29 | Cc1ccc(-n2c(=O)[nH]c3c(C(N)=O)nc(-c4ccc(C)o4)nc32)cc1 | inconclusive: 5.8 µM [inhibitor, full curve] | 
30 | COC(=O)C1CCCN1C(=O)C12CC3CC(CC(C3)C1)C2 (stereo not drawn) |  | inactive: 3.78%
31 | Cc1ccc(/C=N/N2CCN(Cc3cccc4ccccc34)CC2)o1 | inconclusive: 29.1 µM [inhibitor, single point] | 
32 | O=C(C1CCCCC1)N1CCC(CO)(Cc2ccccc2Cl)CC1 | inconclusive: 29.1 µM [inhibitor, single point] | 
33 | Cc1cccc(NC(=O)C(=O)NCC2CCCO2)c1 (stereo not drawn) | inconclusive: 18.3 µM [activator, partial curve] | 
34 | C=CCOC(=O)C(C#N)c1nc2ccccc2nc1N1CCN(Cc2ccccc2)CC1 (stereo not drawn) | inconclusive: 16.4 µM [inhibitor, single point] | 
35 | N/C(=N\OC(=O)CCCOc1ccccc1)c1ccccc1 | inconclusive: 20.6 µM [activator, single point] | 
36 | CCOc1ccc(-n2c(=S)sc3c(=O)[nH]c(SCC(=O)N4CCC(C)CC4)nc32)cc1 |  | inactive: -10%
37 | Cc1ccc(NC(=O)c2ccc(Nc3ccccc3F)nc2)cc1 | inconclusive: 16.4 µM [activator, single point] | 
38 | Cc1ccc(N2C(=O)NC3(CCCCC3)C2=O)cc1 | inconclusive: 20 µM [activator, single point] | 
39 | CC(C)(C)C(=O)c1sc(Nc2ccccc2)nc1N | inconclusive: 2.31 µM [activator, full curve] | 
40 | Cc1cccc(C)c1OCc1cc(C(=O)N2CCC(c3ccncc3)CC2)no1 | inconclusive: 20.6 µM [activator, single point] | 
41 | CC(/C=N/NC(=O)Cn1nccc1C)=C\c1ccc(C(C)C)cc1 | inconclusive: 20.6 µM [activator, partial curve, poor fit] | 
42 | CSCCC(NC(=O)c1ccc(Cl)cc1Cl)C(=O)N1CCCCCCC1 (stereo not drawn) |  | inactive: -4.31%
43 | CCOC(=O)C1=C(C)N(C)C(C)=C(C(=O)OCC)C1c1ccsc1 |  | inactive: -6.33%
44 | COc1ccc(C(=O)Nc2cc(OC)ccc2OC)cc1 | inconclusive: 9.2 µM [activator, partial curve, poor fit] | 
45 | CC(Sc1ccc(Cl)cc1)C(=O)NNC(=O)c1ccccc1O (stereo not drawn) | inconclusive: 8.2 µM [inhibitor, partial curve, poor fit] | 
46 | O=C(c1ccccc1Br)N1CCN(Cc2ccc3c(c2)OCO3)CC1 | inconclusive: 18.3 µM [inhibitor, single point] | 

Row | SMILES | Potency | activity change, negative = inhibition
47 | O=C(CSc1nnc2ncccn12)Nc1cccc2ccccc12 | inconclusive: 25.9 µM [inhibitor, partial curve] | 
48 | CCCC(=O)Nc1ccc(Nc2ccccc2)cc1 | inconclusive: 23.1 µM [activator, partial curve, poor fit] | 
49 | CC(=O)N1c2ccc(S(=O)(=O)N(C)c3cc(C)ccc3C)cc2CC1C (stereo not drawn) |  | inactive: -1.89%
50 | O=C(c1ccc(F)cc1)c1cn(Cc2ccc(F)cc2)c2cc3c(cc2c1=O)OCCO3 | inconclusive: 29.1 µM [inhibitor, single point] | 
51 | Cc1ccc(OCCCCn2ccnc2C)c(C)c1 | active: 11.6 µM | 
52 | COC(=O)c1ccccc1NC(=S)NC(=O)COc1ccccc1Cl |  | inactive: -1.78%
53 | CCCOc1cccc(NC(=O)c2cc(C)oc2C)c1 |  | inactive: -23.1%
54 | C=CCCC(=O)Nc1nc(C)c(-c2csc(Nc3cccc(OC)c3)n2)s1 | active: 14.6 µM | 
55 | Cc1noc(C)c1CC(=O)Nc1ccc2c(c1)OCO2 | inconclusive: 10 µM [activator, partial curve] | 
56 | COc1cccc(NC(=O)Cn2nnc(C(=O)Nc3cc(Cl)ccc3OC)c2N)c1 | inconclusive: 18.3 µM [activator, single point] | 
57 | OC(CN1CCCCC1)Cn1c2ccc(Cl)cc2c2cc(Cl)ccc21 (stereo not drawn) | inconclusive: 29.1 µM [inhibitor, single point] | 
58 | Cc1ccc(C(=O)N/C(=C/c2ccc(Cl)cc2)C(=O)N2CCOCC2)cc1 | inconclusive: 20.6 µM [inhibitor, single point] | 
59 | COc1ccc(/C(N)=N/OC(=O)c2ccc3c(c2)OCO3)cc1 | inconclusive: 10.3 µM [activator, partial curve] | 
60 | NC(=O)C1CCN(C2=C(NS(=O)(=O)c3ccc(Br)cc3)C(=O)c3ccccc3C2=O)CC1 |  | inactive: -19.4%
61 | COCCNC(=O)NC(=O)COC(=O)c1cccn1C | inconclusive: 16.4 µM [activator, partial curve, poor fit] | 
62 | O=C(NC(Cc1ccccc1)c1nc2ccccc2[nH]1)c1ccc(Cl)c([N+](=O)[O-])c1 (stereo not drawn) | inconclusive: 29.1 µM [activator, single point] | 
63 | CC(C)C1Oc2ccccc2C(=O)N(CC(=O)c2ccc3c(c2)OCCO3)C1=O (stereo not drawn) | inconclusive: 2.31 µM [activator, partial curve] | 
64 | COCc1cc(NCc2ccc(Cl)cc2)nc(C)n1 |  | inactive: 8.26%
65 | O=C(C1CCCN(c2ncnc3c2nc2n3CCCCC2)C1)N1CCN(c2cccc(Cl)c2)CC1 (stereo not drawn) | active: 8.2 µM | 
66 | COc1ccc(-c2cc(C(=O)N3CCCCCC3)no2)cc1OC | inconclusive: 10.3 µM [activator, partial curve] | 
67 | O=C(Nc1ccc(C(=O)O)cc1)/C(=C\c1ccc2c(c1)OCO2)NC(=O)c1ccc(Br)cc1 |  | inconclusive: 48.6% [activator]
68 | COc1ccc2cc(C(N)=O)c(=Nc3ccc(C)cc3)oc2c1 | inconclusive: 6.51 µM [inhibitor, partial curve] | 
